For four substances, step yield results are on record in US7368421B2 (Probiodrug AG, priority 2001, dated 2008).

This data set is described as follows: general procedure: Fmoc solid-phase peptide synthesis; Pre-loaded Fmoc-Yaa-Wang resin (0.57 mmol/g); TBTU/DIEA.
Setting [1] is: late stage modification step, TFA salt.

With Boc-Glu(Gly5)-Thia, the step yield (coupling step) is recorded as 86%.
With H-Glu(Gly3)-Thia, the step yield under setting [1] is 94%.
H-Glu(Gly5)-Thia: under setting [1], the step yield is 98%.
Regarding Boc-Glu(Gly3)-Thia, under “coupling step”, the step yield is 49%.
